According to PMC3520743:
No constants are given. Whether binding was seen depends on the method and setting.

The chains behind the UniProt entries cited, without tags or fusion partners. Residues count along the entry.
UniProt P02769, residues 25-607: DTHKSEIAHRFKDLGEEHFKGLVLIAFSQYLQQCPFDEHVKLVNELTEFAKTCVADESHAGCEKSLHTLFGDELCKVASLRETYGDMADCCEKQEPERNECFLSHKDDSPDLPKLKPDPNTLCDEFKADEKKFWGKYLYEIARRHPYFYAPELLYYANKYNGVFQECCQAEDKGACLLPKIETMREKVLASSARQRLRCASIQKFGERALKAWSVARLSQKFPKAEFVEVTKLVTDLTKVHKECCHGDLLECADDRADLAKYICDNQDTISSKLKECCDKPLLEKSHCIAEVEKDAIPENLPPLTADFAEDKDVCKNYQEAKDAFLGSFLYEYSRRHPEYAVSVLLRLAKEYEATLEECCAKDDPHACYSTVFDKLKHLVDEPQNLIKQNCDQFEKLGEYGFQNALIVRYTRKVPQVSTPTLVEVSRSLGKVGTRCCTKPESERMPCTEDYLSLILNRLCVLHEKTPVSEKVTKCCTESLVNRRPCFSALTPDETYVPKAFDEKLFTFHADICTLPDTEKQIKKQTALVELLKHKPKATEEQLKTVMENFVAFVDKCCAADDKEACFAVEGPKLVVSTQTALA
UniProt Q0GZR8: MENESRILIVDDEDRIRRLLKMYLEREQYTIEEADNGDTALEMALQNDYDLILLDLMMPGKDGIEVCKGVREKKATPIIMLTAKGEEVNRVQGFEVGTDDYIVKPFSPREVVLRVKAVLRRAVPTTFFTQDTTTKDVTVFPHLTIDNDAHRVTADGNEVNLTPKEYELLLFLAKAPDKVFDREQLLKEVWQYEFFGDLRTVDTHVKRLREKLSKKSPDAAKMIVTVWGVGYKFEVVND

Target: Bovine serum albumin (bovine) (UniProt P02769)
Assay: far-Western, overlay or dot blot; increasing amounts of purified Fnr, ResD, PlcR and BSA spotted onto nitrocellulose, incubated with biotinylated PlcR or biotinylated ResD under anoxic conditions; streptavidin-HRP, chemiluminescence; both purified

**Q.** For “ResD, recombinant purified (from UniProt Q0GZR8 1-238)”, which binding is on record?
**A.** no binding
